In test [1] the target is T1, human Stn1 (D78A/M167A), full length (human) (UniProt Q9H668).
T1 sequence: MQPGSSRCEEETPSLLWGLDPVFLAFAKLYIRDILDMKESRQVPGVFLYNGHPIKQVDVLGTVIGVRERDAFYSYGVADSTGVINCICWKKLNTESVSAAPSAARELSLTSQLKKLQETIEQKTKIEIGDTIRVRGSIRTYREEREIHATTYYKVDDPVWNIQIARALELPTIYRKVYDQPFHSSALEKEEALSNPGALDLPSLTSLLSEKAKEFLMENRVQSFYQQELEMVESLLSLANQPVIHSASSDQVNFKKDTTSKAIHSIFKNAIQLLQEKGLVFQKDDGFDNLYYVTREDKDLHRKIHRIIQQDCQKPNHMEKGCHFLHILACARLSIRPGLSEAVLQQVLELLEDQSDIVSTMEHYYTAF
Nature of the test: condition: hTen1 injected at 125 µM into hStn1 at 12 µM; ITC; MicroCal iTC200; hTen1 at 125 µM injected into the cell with hStn1 at 12 µM; 20°C; 300 mM KCl, 25 mM Tris-HCl pH 7.5, 1 mM DTT, 5% glycerol; 2.47 µL injections; both purified.

In test [2] the target is T2, human Stn1 (D78A/I164A), full length (human) (UniProt Q9H668).
T2 sequence: T1 sequence with I164A, A167M
The test is described as above.

Residue numbers refer to the chain shown, from its start. No constants are given. Whether binding was seen depends on the method and setting.

B1: human Ten1, full length, wild type (natural protein, UniProt Q86WV5 1-123, looked up)
chain: MMLPKPGTYYLPWEVSAGQVPDGSTLRTFGRLCLYDMIQSRVTLMAQHGSDQHQVLVCTKLVEPFHAQVGSLYIVLGELQHQQDRGSVVKARVLTCVEGMNLPLLEQAIREQRLYKQERGGSQ
notes: human Ten1 (hTen1), subunit of the human CST complex, full length; Purification is described only for the complex with hStn1N (cells mixed before lysis; tags cleaved by TEV); also called hTen1; hTen1(WT); source: E. coli BL21-CodonPlus(DE3) RIPL, purified; not shown: His, N-terminal, cleaved
Regarding B1, the binding entry in test [1] and in test [2] was “no binding” each time.
